Some of the results follow.

Amino acid sequences for entries named in this document (tags omitted). A change or cut given only in a name is not applied to a line headed by its entry.
UniProt Q9UIV1, whole entry, looked up: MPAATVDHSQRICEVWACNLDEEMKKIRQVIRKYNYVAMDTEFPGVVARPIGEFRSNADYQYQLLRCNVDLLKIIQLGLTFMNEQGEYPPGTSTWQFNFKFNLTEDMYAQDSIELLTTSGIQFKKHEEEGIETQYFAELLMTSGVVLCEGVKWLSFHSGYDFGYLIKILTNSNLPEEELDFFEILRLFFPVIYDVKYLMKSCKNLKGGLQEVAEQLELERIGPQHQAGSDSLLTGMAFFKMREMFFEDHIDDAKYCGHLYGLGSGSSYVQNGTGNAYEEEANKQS
UniProt P53621: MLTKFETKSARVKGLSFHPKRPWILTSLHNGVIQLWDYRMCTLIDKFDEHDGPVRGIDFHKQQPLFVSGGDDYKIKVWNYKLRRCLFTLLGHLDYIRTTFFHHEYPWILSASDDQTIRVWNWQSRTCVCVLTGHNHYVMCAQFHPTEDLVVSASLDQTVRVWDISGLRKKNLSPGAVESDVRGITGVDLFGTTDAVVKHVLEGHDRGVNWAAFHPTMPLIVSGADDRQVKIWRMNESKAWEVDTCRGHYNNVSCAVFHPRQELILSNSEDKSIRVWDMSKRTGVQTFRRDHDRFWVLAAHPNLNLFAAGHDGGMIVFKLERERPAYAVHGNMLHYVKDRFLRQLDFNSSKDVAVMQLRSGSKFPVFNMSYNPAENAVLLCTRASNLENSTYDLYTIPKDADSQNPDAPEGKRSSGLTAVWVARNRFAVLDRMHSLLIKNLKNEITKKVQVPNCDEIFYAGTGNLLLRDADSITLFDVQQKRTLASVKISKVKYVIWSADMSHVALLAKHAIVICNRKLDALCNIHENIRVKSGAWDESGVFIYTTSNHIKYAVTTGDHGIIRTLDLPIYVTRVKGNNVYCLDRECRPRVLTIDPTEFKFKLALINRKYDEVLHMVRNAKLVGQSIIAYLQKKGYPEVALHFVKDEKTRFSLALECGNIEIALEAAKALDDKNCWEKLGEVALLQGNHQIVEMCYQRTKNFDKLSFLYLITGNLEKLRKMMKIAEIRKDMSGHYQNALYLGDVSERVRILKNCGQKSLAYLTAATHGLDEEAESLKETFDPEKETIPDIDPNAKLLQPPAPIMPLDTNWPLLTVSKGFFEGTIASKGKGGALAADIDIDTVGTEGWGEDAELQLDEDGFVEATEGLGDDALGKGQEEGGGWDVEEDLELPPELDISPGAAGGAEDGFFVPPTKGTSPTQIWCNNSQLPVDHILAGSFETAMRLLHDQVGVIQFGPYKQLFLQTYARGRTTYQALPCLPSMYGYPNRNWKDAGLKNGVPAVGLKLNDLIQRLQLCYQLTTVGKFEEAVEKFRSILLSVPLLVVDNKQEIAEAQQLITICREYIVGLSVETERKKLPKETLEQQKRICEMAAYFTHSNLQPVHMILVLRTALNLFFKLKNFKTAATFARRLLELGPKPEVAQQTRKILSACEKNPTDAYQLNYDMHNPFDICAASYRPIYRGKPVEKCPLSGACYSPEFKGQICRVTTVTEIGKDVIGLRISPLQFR
UniProt Q96MW5: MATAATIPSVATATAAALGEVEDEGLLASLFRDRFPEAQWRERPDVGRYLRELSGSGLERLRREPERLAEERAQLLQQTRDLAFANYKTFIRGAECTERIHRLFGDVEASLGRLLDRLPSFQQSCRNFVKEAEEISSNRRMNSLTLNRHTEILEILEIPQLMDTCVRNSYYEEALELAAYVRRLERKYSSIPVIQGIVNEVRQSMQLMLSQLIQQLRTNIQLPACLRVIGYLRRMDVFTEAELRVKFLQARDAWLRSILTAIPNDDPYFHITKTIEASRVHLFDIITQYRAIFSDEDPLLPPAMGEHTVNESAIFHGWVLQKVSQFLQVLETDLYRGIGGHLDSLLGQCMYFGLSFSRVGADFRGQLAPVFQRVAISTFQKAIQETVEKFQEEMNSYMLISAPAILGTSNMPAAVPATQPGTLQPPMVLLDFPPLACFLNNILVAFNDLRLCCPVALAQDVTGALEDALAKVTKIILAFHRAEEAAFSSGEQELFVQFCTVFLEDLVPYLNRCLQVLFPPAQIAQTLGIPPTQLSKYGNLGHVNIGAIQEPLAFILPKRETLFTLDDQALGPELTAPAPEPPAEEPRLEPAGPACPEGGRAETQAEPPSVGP
UniProt P39059: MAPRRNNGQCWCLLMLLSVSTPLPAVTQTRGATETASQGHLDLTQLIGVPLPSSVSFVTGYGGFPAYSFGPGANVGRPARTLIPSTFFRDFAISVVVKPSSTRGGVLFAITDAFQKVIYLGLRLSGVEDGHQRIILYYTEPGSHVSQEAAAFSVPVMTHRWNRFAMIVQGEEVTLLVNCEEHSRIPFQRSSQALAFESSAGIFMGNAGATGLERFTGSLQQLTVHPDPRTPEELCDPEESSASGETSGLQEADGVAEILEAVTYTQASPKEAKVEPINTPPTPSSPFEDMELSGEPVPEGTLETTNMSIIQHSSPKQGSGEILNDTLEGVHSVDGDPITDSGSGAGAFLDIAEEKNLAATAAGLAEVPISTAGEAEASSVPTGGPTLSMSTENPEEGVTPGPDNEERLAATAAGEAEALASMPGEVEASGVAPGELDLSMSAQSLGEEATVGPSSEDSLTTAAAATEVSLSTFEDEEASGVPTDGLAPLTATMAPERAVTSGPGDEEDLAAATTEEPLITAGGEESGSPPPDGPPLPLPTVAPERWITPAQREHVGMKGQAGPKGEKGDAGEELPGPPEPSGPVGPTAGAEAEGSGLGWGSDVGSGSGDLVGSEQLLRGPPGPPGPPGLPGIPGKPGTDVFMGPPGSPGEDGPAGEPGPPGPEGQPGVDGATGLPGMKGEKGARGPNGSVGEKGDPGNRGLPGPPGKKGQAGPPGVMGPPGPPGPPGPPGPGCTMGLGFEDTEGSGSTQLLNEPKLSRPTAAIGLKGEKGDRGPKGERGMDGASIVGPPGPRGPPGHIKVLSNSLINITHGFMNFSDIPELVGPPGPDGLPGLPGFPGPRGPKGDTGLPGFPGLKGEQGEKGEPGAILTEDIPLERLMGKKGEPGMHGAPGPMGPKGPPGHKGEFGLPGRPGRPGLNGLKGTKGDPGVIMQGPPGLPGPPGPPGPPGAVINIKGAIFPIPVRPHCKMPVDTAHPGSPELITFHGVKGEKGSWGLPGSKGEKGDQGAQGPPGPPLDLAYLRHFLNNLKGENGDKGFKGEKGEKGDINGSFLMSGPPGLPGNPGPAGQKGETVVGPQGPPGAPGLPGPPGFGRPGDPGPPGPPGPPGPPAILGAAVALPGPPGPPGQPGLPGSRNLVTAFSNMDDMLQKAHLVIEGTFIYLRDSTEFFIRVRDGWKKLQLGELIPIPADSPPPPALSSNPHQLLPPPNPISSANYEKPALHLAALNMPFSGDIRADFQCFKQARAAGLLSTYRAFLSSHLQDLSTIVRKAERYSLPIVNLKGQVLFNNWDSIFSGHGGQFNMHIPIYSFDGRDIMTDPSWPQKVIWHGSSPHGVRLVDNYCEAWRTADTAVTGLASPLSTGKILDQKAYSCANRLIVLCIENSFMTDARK
UniProt Q96BR5: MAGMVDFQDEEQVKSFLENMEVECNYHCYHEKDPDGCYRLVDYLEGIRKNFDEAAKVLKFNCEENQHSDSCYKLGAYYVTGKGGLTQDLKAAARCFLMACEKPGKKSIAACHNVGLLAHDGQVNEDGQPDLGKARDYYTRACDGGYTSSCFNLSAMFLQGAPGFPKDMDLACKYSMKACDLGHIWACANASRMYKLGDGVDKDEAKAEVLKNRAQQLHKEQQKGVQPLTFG
UniProt Q8IYK4: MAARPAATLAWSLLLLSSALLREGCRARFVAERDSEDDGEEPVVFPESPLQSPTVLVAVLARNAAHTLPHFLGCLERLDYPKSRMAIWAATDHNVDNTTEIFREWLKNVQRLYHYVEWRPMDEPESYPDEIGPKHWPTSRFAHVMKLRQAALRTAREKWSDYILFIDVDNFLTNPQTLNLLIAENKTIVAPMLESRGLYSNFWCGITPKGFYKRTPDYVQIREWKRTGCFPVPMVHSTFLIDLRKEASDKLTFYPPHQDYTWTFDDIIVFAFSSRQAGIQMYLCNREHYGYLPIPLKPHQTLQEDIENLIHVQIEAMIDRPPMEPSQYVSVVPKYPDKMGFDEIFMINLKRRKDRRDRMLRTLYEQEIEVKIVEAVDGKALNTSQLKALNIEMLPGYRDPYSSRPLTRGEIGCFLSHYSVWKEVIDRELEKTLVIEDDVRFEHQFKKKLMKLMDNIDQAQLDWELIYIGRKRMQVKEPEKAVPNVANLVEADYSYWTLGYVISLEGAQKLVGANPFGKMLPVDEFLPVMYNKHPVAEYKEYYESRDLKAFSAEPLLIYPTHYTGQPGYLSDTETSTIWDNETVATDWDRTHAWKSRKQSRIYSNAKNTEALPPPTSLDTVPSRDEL
UniProt Q9H9Q2: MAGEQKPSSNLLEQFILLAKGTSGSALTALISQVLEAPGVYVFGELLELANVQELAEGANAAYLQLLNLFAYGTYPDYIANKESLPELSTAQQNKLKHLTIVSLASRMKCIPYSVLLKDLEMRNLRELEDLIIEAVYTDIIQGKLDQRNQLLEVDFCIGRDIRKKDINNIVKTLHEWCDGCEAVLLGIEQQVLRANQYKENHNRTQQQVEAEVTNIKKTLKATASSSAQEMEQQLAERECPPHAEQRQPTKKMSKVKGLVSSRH
UniProt Q8N684: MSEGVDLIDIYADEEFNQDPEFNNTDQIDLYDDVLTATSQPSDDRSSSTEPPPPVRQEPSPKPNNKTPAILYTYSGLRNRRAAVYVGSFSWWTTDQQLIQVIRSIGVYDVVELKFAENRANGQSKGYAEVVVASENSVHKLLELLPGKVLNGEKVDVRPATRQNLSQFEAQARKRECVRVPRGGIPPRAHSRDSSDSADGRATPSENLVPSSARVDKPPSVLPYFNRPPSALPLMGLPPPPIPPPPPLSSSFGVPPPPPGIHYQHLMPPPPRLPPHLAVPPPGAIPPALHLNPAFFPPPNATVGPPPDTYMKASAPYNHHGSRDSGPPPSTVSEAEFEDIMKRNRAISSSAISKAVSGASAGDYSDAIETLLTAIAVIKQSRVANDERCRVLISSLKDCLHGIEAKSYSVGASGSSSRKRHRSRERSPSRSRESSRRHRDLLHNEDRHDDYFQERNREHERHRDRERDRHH
UniProt Q8NI60: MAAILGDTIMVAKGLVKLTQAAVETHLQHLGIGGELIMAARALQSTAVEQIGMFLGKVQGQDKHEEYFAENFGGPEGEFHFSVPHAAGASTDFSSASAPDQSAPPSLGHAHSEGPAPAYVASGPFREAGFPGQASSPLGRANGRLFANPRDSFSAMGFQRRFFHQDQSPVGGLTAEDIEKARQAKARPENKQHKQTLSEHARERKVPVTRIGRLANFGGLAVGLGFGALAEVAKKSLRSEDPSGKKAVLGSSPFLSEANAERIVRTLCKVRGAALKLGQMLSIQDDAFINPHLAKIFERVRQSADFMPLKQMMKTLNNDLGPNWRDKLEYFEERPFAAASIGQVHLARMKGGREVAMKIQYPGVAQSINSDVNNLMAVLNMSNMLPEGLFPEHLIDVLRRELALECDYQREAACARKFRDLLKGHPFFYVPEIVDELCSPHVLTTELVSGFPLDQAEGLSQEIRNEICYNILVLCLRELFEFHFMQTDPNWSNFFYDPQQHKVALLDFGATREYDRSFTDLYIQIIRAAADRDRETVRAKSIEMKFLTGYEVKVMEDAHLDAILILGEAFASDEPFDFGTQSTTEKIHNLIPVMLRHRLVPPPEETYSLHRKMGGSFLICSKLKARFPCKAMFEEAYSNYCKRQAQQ
UniProt Q16630, whole entry, looked up: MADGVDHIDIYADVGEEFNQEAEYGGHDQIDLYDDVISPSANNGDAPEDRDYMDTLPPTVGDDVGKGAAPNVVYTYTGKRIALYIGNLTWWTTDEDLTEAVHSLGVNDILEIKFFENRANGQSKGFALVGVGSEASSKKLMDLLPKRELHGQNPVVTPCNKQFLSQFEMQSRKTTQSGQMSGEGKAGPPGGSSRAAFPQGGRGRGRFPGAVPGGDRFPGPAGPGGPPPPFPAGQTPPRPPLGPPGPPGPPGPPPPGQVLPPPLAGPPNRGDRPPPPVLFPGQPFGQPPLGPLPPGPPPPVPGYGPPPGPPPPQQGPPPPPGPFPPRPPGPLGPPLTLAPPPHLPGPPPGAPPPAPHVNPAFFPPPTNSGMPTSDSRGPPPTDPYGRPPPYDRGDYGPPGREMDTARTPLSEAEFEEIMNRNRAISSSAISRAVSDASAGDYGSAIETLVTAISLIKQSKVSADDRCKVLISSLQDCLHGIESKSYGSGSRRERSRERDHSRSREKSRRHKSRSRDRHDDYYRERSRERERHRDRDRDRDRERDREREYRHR
UniProt Q9UBW8: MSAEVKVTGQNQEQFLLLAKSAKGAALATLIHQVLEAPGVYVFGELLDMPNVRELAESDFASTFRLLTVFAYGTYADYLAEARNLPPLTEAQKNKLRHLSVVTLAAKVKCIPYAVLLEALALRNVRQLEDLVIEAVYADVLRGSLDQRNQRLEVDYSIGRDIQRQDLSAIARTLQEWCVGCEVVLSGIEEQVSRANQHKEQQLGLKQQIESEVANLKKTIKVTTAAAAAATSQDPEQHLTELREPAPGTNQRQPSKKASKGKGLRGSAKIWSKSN

Holding throughout (test): log2 fold change, soluble protein after heating vs DMSO (PISA); higher = thermal stabilisation; K562 lysate, 10 uM; active = over 0.2 and 3.5 SD of the protein, either way, in both replicates (recomputed)
Compound in one assay: C=CC(=O)N1CCC[C@@H](n2nc(-c3ccc(Oc4ccccc4)cc3)c3c(N)ncnc32)C1 [ibrutinib]
An outline of the steps:
(§1)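 K562 pellets were dounce-homogenised in PBS pH 7.4 with 1 mM MgCl2, and the crude extract at 1 mg/mL protein was treated with 10 μM compound for 30 min. Aliquots were heated for 3 min across 48°C-58°C, pooled, and brought to 0.5% NP-40 at 4°C; soluble protein was the supernatant after 21,000xg for 90 min. Soluble protein was quantified by TMTpro 16plex LC-MS/MS with channel sums equalised, and reported as log2 fold change in thermal stability against DMSO controls, with values from duplicates.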

Compound in assay [1]: CC(=O)c1cnc2ccc(-c3cc(Cl)c(O)c(Cl)c3)nc2c1N[C@H]1CC[C@H](CN(C)C)CC1
An outline of the steps:
as §1

Compound in another assay: CC(C)(C)Cn1c(N)nc2ccc(-c3[nH]c(C(C)(C)C)nc3-c3ccc(F)cc3)nc21 [ralimetinib]
Put shortly: as §1

Compound in assay [2]: CC(C)(O)CC(=O)NCCn1ccc2ncnc(Nc3ccc(Oc4cccc(C(F)(F)F)c4)c(Cl)c3)c21
Put shortly:
as §1

Compound in assay [3]: CC(C)C1=C2N=C(C=C(N2N=C1)NCC3=CC=CC=C3)NCCCCCCN
An outline of the steps:
as §1

Compound in assay [4]: CC1=C(C(CC(=O)N1)C2=CC=C(C=C2)C(F)(F)F)C(=O)NC3=C(C=C4C(=C3)C=NN4)F
An outline of the steps: as §1

Compound in assay [5]: CC1=C(C2=C(C=C1)C(=O)C3=CC=CC=C3N2CCCN)C
Put shortly:
as §1

Compound in assay [6]: CC1=C(C=C(C=C1)NC(=O)C2=CC(=CC=C2)C(C)(C)C#N)NC3=CC4=C(C=C3)N=CN(C4=O)C
An outline of the steps:
as §1

Compound in assay [7]: CC1=C(C=C(C=C1)NC(=O)C2=CC(=CC=C2)N(C)C)NC(=O)C3=CC=C(C=C3)O
Put shortly: as §1

Compound in assay [8]: CC1=CC=C(C=C1)SC2=C3C=C(SC3=CN=C2)C(=O)N
An outline of the steps: as §1

In the case of CNOT7 (UniProt Q9UIV1), the log2 fold change in the assay with ibrutinib is inactive: -0.011; in [1], inactive: 0.032; with ralimetinib, inactive: 0.007; in assay [2] it was inactive: -0.021; in assay [3] it was inactive: 0.022; in [4] it was inactive: -0.005. Besides, the log2 fold change in [5] was inactive: 0.037; in assay [6], inactive: -0.031; in assay [7] it was inactive: 0.03; in assay [8], inactive: -0.006.

Take CPS1 isoform 3 (UniProt P31327): the log2 fold change in the assay with ibrutinib was inactive: -0.014; in assay [1], inactive: -0.056; with ralimetinib, inactive: -0.002; in assay [2] it was inactive: 0.04; in [3], inactive: 0.064; in [4] it was inactive: -0.015. Besides, the log2 fold change was inactive: -0.038 in assay [5], inactive: 0.05 in [6], inactive: -0.079 in assay [7] and inactive: -0.143 in assay [8].

Regarding COPA isoform 2 (UniProt P53621), the log2 fold change in the assay with ibrutinib is inactive: -0.012; in assay [1], inactive: -0.011; in the assay with ralimetinib, inactive: 0.011; in assay [2] it was inactive: -0.01; in assay [3], inactive: -0.015; in assay [4] it was inactive: -0.006. Also, the log2 fold change is inactive: -0.011 in assay [5], inactive: 0.004 in assay [6], inactive: 0.002 in assay [7] and inactive: 0.018 in [8].

As to CNOT6L (UniProt Q96LI5), the log2 fold change in the assay with ibrutinib is inactive: 0.02; in [1], inactive: 0.015; in the assay with ralimetinib, inactive: 0.037; in assay [2], inactive: -0.06; in assay [3] it was inactive: -0.05; in assay [4], inactive: 0.064. Further, the log2 fold change is inactive: -0.07 in assay [5], inactive: 0.008 in assay [6], inactive: -0.041 in assay [7] and inactive: 0.016 in assay [8].

As to COG8 (UniProt Q96MW5), the log2 fold change with ibrutinib is inactive: 0.009; in assay [1], inactive: 0.015; in the assay with ralimetinib, inactive: 0.034; in assay [2], inactive: -0.03; in assay [3] it was inactive: 0.054; in [4], inactive: 0.044. Further, the log2 fold change was inactive: -0.049 in assay [5], inactive: -0.087 in assay [6], inactive: 0.033 in assay [7] and inactive: 0.003 in assay [8].

Turning to COL15A1 (UniProt P39059), the log2 fold change was inactive: -0.032 in the assay with ibrutinib; inactive: 0.026 in assay [1]; inactive: -0.021 with ralimetinib; inactive: -0.035 in [2]; inactive: 0.049 in [3]; inactive: 0.136 in assay [4]. For the same target, the log2 fold change was inactive: 0.052 in [5], inactive: 0.007 in assay [6], inactive: 0.063 in [7] and inactive: -0.019 in [8].

With COA7 (UniProt Q96BR5), the log2 fold change with ibrutinib was inactive: 0.087; in [1], inactive: 0.015; with ralimetinib, inactive: -0.002; in assay [2], inactive: 0.045; in assay [3], inactive: 0.009; in assay [4], inactive: -0.009. Besides, the log2 fold change was inactive: 0.001 in [5], inactive: -0.044 in [6], inactive: 0.032 in assay [7] and inactive: 0.012 in [8].

On to CNDP2 (UniProt Q96KP4), for which the log2 fold change with ibrutinib is inactive: 0.013; in assay [1] it was inactive: -0.027; with ralimetinib, inactive: 0.024; in assay [2], inactive: -0.049; in [3], inactive: -0.011; in assay [4], inactive: -0.005. The log2 fold change in assay [5] is inactive: -0.02; in assay [6], inactive: 0.023; in assay [7], inactive: 0; in assay [8], inactive: -0.035.

For the target COLGALT2 (UniProt Q8IYK4), the log2 fold change with ibrutinib was inactive: 0.033; in assay [1], inactive: 0.064; in the assay with ralimetinib, inactive: 0.006; in assay [2], inactive: 0.027; in assay [3], inactive: -0.003; in assay [4], inactive: 0.011. The log2 fold change in assay [5] was inactive: -0.018; in assay [6] it was inactive: -0.092; in assay [7], inactive: -0.005; in assay [8], inactive: 0.037.

As for COPS7B (UniProt Q9H9Q2), the log2 fold change in the assay with ibrutinib is inactive: 0.03; in [1], inactive: -0.036; with ralimetinib, inactive: -0.011; in [2] it was inactive: 0.066; in assay [3], inactive: -0.076; in assay [4], inactive: -0.02. For the same target, the log2 fold change was inactive: -0.035 in [5], inactive: -0.007 in assay [6], inactive: 0.017 in [7] and inactive: -0.015 in [8].

With CPSF7 isoform 3 (UniProt Q8N684), the log2 fold change with ibrutinib is inactive: 0.069; in assay [1], inactive: 0.006; with ralimetinib, inactive: 0.001; in [2], inactive: 0.014; in assay [3], inactive: -0.036; in [4] it was inactive: 0.025. Besides, the log2 fold change in [5] is inactive: 0.027; in [6] it was inactive: -0.215; in [7], inactive: -0.006; in [8], inactive: 0.017.

As to COQ8A (UniProt Q8NI60), the log2 fold change with ibrutinib is inactive: -0.061; in assay [1] it was active: 0.611; with ralimetinib, inactive: 0.143; in assay [2], inactive: 0.115; in [3] it was inactive: -0.009; in [4], inactive: -0.139. For the same target, the log2 fold change is inactive: -0.074 in assay [5], inactive: -0.04 in assay [6], inactive: 0 in assay [7] and inactive: -0.068 in assay [8].

Regarding COPS5 (UniProt Q92905), the log2 fold change with ibrutinib was inactive: 0.029; in assay [1], inactive: -0.003; in the assay with ralimetinib it was inactive: 0; in assay [2], inactive: -0.064; in assay [3], inactive: 0.024; in assay [4], inactive: -0.018. For the same target, the log2 fold change in [5] was inactive: -0.007; in [6], inactive: 0.015; in [7], inactive: -0.013; in assay [8] it was inactive: 0.022.

Turning to CPSF6 isoform 2 (UniProt Q16630), the log2 fold change was inactive: 0.055 with ibrutinib; inactive: 0.006 in assay [1]; inactive: -0.001 in the assay with ralimetinib; inactive: 0.001 in assay [2]; inactive: 0.013 in [3]; inactive: 0 in assay [4]. For the same target, the log2 fold change is inactive: -0.003 in assay [5], inactive: -0.037 in [6], inactive: 0.025 in assay [7] and inactive: -0.004 in [8].

Consider COPS7A (UniProt Q9UBW8), for which the log2 fold change was inactive: -0.011 in the assay with ibrutinib; inactive: -0.009 in assay [1]; inactive: 0.027 with ralimetinib; inactive: -0.002 in [2]; inactive: -0.05 in assay [3]; inactive: -0.015 in assay [4]. The log2 fold change in [5] was inactive: -0.003; in assay [6], inactive: 0.004; in assay [7] it was inactive: 0.004; in assay [8], inactive: -0.024.

The record behind these values is the supplement of paper PMC10849652.
